# Screening data, single-dose tests

Sequences of proteins named here, by UniProt entry; tags and fusion partners are left off. Residues count along the entry.
UniProt A4I591, 1-473: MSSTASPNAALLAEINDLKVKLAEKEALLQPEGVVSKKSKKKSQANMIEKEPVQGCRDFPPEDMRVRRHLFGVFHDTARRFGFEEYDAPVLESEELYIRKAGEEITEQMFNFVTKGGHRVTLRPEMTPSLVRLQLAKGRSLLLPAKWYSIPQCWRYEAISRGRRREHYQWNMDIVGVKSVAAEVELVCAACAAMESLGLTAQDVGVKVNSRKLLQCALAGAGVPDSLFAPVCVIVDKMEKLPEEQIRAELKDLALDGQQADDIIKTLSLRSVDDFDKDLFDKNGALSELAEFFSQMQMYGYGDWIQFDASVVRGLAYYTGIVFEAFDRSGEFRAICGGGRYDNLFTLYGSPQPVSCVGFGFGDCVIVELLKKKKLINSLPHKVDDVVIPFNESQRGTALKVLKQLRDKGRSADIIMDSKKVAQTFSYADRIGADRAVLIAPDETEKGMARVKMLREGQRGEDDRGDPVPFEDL
UniProt I6X8D2, whole entry: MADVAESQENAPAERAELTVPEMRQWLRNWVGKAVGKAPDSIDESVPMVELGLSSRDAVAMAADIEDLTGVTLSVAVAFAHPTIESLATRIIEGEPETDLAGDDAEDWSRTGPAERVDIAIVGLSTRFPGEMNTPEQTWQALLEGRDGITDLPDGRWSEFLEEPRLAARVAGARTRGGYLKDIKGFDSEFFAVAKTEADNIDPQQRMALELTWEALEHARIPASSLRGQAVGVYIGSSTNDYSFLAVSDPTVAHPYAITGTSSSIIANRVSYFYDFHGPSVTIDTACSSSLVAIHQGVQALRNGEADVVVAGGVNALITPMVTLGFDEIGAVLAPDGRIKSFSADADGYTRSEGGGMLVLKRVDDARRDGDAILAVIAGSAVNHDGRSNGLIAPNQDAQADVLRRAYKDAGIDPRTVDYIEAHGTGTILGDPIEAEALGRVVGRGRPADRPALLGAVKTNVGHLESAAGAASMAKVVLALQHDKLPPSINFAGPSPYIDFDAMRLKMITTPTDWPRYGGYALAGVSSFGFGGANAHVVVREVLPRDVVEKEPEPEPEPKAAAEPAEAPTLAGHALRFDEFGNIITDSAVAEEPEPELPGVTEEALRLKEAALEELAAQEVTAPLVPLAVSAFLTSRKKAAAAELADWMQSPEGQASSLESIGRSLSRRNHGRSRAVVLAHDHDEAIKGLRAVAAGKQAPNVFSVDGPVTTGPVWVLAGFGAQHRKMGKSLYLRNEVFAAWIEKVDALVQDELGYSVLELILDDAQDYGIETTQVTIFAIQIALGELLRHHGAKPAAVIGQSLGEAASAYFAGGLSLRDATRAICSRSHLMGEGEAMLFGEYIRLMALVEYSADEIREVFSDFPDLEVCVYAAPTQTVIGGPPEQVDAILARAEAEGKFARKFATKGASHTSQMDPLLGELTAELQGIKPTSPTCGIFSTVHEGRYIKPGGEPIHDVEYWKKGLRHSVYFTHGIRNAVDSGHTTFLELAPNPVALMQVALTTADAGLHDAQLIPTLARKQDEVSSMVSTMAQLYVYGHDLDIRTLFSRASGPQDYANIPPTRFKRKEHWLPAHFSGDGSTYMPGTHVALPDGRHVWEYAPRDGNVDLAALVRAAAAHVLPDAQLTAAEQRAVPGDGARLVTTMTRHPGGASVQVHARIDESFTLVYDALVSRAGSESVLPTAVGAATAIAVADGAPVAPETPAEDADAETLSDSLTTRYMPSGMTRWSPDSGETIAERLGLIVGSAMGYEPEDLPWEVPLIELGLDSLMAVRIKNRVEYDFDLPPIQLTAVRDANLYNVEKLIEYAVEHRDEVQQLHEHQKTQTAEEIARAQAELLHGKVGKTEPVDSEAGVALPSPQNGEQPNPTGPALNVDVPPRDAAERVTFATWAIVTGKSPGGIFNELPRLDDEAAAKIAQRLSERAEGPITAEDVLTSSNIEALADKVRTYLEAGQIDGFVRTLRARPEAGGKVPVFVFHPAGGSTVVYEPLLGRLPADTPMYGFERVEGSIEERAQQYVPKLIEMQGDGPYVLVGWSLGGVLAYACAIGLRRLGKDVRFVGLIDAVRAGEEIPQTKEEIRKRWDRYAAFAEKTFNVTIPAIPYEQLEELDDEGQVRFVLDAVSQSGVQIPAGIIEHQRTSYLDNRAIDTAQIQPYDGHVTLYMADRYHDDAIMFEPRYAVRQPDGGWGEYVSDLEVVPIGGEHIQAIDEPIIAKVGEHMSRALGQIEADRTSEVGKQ
UniProt P9WFT3, whole entry: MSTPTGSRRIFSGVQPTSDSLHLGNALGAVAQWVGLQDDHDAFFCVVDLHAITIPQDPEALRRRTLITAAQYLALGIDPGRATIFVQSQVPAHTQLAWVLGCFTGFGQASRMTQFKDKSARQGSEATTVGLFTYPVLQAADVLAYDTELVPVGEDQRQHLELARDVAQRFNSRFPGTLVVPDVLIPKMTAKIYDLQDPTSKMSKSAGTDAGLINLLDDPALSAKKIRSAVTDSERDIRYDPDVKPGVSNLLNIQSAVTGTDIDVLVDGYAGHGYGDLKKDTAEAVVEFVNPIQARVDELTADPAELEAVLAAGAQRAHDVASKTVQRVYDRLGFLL
UniProt Q4DA54, 1-478: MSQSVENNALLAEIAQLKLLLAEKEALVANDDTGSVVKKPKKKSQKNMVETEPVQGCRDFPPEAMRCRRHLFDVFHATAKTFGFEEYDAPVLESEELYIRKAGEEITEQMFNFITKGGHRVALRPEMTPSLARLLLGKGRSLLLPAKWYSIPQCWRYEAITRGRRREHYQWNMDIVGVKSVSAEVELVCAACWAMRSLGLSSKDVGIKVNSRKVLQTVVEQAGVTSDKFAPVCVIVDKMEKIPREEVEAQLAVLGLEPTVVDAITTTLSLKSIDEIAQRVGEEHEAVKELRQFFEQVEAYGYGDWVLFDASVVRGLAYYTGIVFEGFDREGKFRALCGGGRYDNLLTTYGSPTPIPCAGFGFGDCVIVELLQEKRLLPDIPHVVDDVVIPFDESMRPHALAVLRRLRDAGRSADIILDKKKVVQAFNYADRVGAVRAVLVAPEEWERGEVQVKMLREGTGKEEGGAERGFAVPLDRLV

Measurements from “University of Dundee, Small-Polar-MMV Screening Library” (2021), ChEMBL document CHEMBL3988442.

Each number is a percent effect as filed.
The record does not define 0% and 100%; most values in the screen are far below 50% and negative numbers occur (in some assays of this library far below -100).
This is an unselected part of the compounds tested.
A dash means the value is not listed here; it may have been measured.

LiHisRS: 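Histidine-tRNA ligase, Leishmania infantum (UniProt A4I591). Enzyme assay of histidyl-tRNA synthetase; the read-out is not stated. Compounds at 30 µM. Direction is inferred from retests: higher values go with stronger inhibition. The assay is labelled LdHisRS but filed under L. infantum. Size under these conditions: about 69,000 compounds, about 410 of them at 50% or above in at least one test.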
Pks13 thioesterase: 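Polyketide synthase Pks13, Mycobacterium tuberculosis (UniProt I6X8D2). Enzyme assay of the thioesterase domain of polyketide synthase 13; the read-out is not stated. Concentration: 30 µM. Higher reads as stronger inhibition (inferred from which compounds were picked for retests). Of about 67,000 compounds tested this way, about 300 (0.46%) reached 50% or more in at least one test.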
MtTrpRS: 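Enzyme assay of tryptophanyl-tRNA synthetase; the read-out is not stated. Target: Tryptophan-tRNA ligase, Mycobacterium tuberculosis (UniProt P9WFT3). Tested at 10 µM. Direction is not recorded; retested compounds ran higher, which suggests that high means inhibition. Size under these conditions: about 65,000 compounds, about 64 of them at 50% or above in at least one test.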
TcHisRS: 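Enzyme assay of histidyl-tRNA synthetase; the read-out is not stated. Target: Histidine-tRNA ligase, Trypanosoma cruzi CL Brener (UniProt Q4DA54). Concentration: 30 µM. The record gives no direction; compounds that gave an IC50 in retests scored well above the rest, so higher reads as stronger inhibition. Size under these conditions: about 69,000 compounds, about 31 of them at 50% or above in at least one test.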

compound	LiHisRS	Pks13 thioesterase	MtTrpRS	TcHisRS
OC1(CN2CCCC2)CCCN(Cc2c[nH]c(CC3CCCC3)n2)C1 (stereo not drawn)	22.86%	-54.81%	-2.58%	5.195%
Cn1cc(-c2nc(CN3CCN(CCO)CC3)cs2)cn1	24.8%	-7.236%	-2.516%	5.703%
Cn1nc(Br)c2c(NCCS(N)(=O)=O)ncnc21	20%	40.18%	0.1356%	-2.484%
CCCN1CCCn2nc(CNS(=O)(=O)c3ccc(C)cc3)cc2C1	11.43%	-1.13%	-0.919%	4.959%
Cc1c(C(=O)N(C)c2ccccc2)cccc1N(C)S(C)(=O)=O	3.529%	-0.0992%	3.785%	7.035%
Cc1nc(C)c(C(=O)N(C)Cc2cnn(C)c2)s1	2.632%	-7.8%	3.216%	5.172%
CC(=O)NCC(=O)N1CCC2(CC1)NC(=O)CC2c1cccnc1 (stereo not drawn)	0%	-16.09%	-3.374%	3.941%
O=C1CCCN1Cc1ncn2c1CN(C(=O)C1CC=CC1)CCC2	19.44%	-14.15%	-15.7%	9.346%
O=C1CCC2(CCN(Cc3nccs3)CC2)CN1CCCO	9.639%	-14.2%	-7.843%	7.182%
Cc1ccc(S(=O)(=O)NCC(O)c2ccoc2)s1 (stereo not drawn)	20.78%	-24.41%	-0.1236%	2.424%
CCN(CC)C(=O)Nc1cccc(Oc2ccccn2)c1	11.61%	-15.43%	1.955%	0%
CC(C)Cc1noc(CN2CCCC(Cn3cncn3)C2)n1 (stereo not drawn)	6.154%	-8.486%	-4.373%	0.3831%
Cn1c(CN2CCCCC2)nnc1C1CCCN(c2ccncc2F)C1 (stereo not drawn)	15.58%	-24.36%	1.36%	0%
CCc1cc(N2CC(N3CCCCC3C)C2)n2nccc2n1 (stereo not drawn)	16.39%	-12.36%	1.771%	4%
c1cnc(-c2cnc(N3CCSCC3)nc2C2CCCO2)cn1 (stereo not drawn)	8.333%	-12.17%	1.589%	-0.5405%
Cc1cccnc1C(Nc1nccc(C2CCCC2)n1)C1CC1 (stereo not drawn)	19.74%	-21.61%	-2.294%	7.609%
CCOc1cccnc1C(=O)N1CC=C(c2ccc(O)cc2)CC1	8.571%	-26.23%	1.786%	5.155%
O=C(c1ccc(=O)[nH]c1)N1CCc2c(nc(-c3cccnc3)[nH]c2=O)C1	12.82%	-8.975%	-6.797%	3.933%
Cc1cnc(CN2CCOC(CN(C)c3cccnn3)C2)cn1 (stereo not drawn)	3.306%	-6.187%	2.522%	0%
Cc1c(C(C)N)cnn1-c1ccccn1 (stereo not drawn)	16.46%	-28.3%	5.795%	3.879%
CN(C)S(=O)(=O)c1cccc(CNc2cc(CO)ccc2Cl)c1	8%	-11%	4.515%	-0.9804%
Cc1ccc(NC(=O)Nc2cnc(N3CCN(C)CC3)nc2)cc1	2.247%	-5.467%	6.016%	4.523%
O=C(NCc1ccccn1)NCc1ccc(Cl)s1	13.68%	-16.81%	18.11%	4.843%
Cc1ccc(-c2nnc(CN3CCNC(=O)C3)o2)cc1	21.21%	-32.99%	-5.263%	2.116%
COc1ccc(-c2ccccc2CCN)c(OC)c1OC	16%	-16.68%	1.314%	0%
Cc1ncsc1CN1C[C@H](OCc2ccncc2)[C@H]2OCCC[C@H]21	25%	-26.12%	-3.653%	5.435%
CCN1CCC(NC(=O)CN2CCCC(NS(C)(=O)=O)C2)CC1 (stereo not drawn)	1.042%	-25.73%	-0.7224%	-0.5525%
CCC(CO)N(Cc1cccs1)C(=O)CNS(=O)(=O)c1cccs1 (stereo not drawn)	17.2%	-3.373%	3.333%	1.235%
NCc1cccc(-c2cccnc2C(=O)NCCCN2CCOCC2)c1	2.837%	8.08%	-0.5464%	2.632%
COc1ccc(NC(=O)c2ccc(CN3CC[C@H](O)C3)cc2)c(OC)n1	22.45%	2.517%	5.924%	8.205%
O=C(c1cnc2[nH]c(=O)[nH]c(=O)c2c1)N1CCCC1C1CCCC1 (stereo not drawn)	24.66%	1.377%	-2.961%	1.053%
CCNc1cc2c(nn1)CCN(C(=O)c1ccc(CNC(C)=O)o1)C2	39.19%	9.501%	5.49%	4.906%
CN(C)CCN1C(=O)CCC12CCN(Cc1cccs1)CC2	5.769%	-26.33%	-5.087%	1.942%
CNC(=O)CN(C)C(=O)c1cc(Cl)c(I)cc1OC	10.53%	7.57%	0.06817%	7.317%
OC1(CN2CCOC(Cn3cncn3)C2)CCCCC1 (stereo not drawn)	6.25%	-18.34%	-3.199%	7.182%
CNC(=O)c1cn2cc(-c3ccc(F)cc3)n(CC=C(C)C)c(=O)c2n1	15.56%	-50.23%	-0.6536%	13.94%
CCNC(=O)CCC(=O)NC1(c2cccc(C(F)(F)F)c2)CCC1	-5.263%	-33.68%	-1.05%	5.263%
C1CCN(c2nc(N3CCOCC3)nc3[nH]nnc23)CC1	12.9%	-6.913%	-0.5833%	3.627%
Cc1ccc(C2COCCN2C(=O)c2ccc(F)c(F)c2)o1 (stereo not drawn)	11.61%	9.937%	2.1%	6.667%
CN(Cc1cc(F)cc2cccnc12)CC1CCN(CCO)CC1	4.712%	-27.09%	1.445%	-0.5348%
O=C(NCCN1CCOCC1)c1n[nH]c(=O)c2ccccc12	21.92%	-9.59%	-2.478%	-1.527%
COc1ccccc1N1CC(NC(=O)Cn2cc(C(C)C)nn2)CC1=O (stereo not drawn)	4.286%	-8.516%	-2.185%	1.149%
CCCc1n[nH]cc1C(=O)N1CCC(c2nccn2CCOC)CC1	15.24%	-19.59%	2.089%	-4.132%
COc1cc(C(=O)NS(=O)(=O)c2cncc(Br)c2)cc(OC)c1C	-6.122%	1.67%	-0.1097%	-4.103%
CCN1CC(C(=O)NC(C)(C)C)CC1=O (stereo not drawn)	8.197%	-16.31%	-1.847%	2.326%
CN1CCCN(C(=O)NCCNc2cnccn2)CC1	5.263%	11.48%	-3.739%	3.152%
CCC1=N[C@@]2(CC[C@@H]3CN(CC4CC4)C[C@@H]32)C(=O)N1	-0.8547%	2.983%	9.097%	-1.604%
Cc1occc1CNC(=O)C1CCN(C(=O)OC(C)(C)C)C1 (stereo not drawn)	1.786%	-14.5%	8.973%	2.632%
O=C1CC2(CCCNC2)C(=O)N1Cc1ccccc1 (stereo not drawn)	9.756%	-7.734%	-1.908%	3.008%
CC(C)S(=O)(=O)NCC1CCCN(C(=O)c2ccc3c(c2)OCCO3)C1 (stereo not drawn)	17.31%	-9.544%	1.497%	0%
Cn1nc(N2CCCC(C(=O)Nc3nccs3)C2)ccc1=O (stereo not drawn)	20.78%	-9.148%	0%	1.212%
Cc1cc(N2CCOC(C(F)(F)F)C2)nc(-c2ccccc2)n1 (stereo not drawn)	17.78%	-9.956%	1.975%	8.333%
O=C1COC2(CCN(Cc3cccs3)CC2)CN1c1ccccc1	5.714%	-12.01%	-1.562%	6.612%
CCOc1cccc(COC(=O)c2ccc(F)cn2)n1	10.83%	-19.59%	-0.8256%	-7.895%
CN(C(=O)CN1CCc2nn(C)c(=O)cc2C1)c1nccs1	65.87%	10.78%	1.27%	8.235%
O=C(Nc1ccccc1)[C@H]1C[C@@H]2CN(C(=O)Nc3ccccc3)C[C@H]1O2	15.38%	-0.7574%	3.596%	3.659%
Cc1cc(C)n(CC2CCCN2C(=O)c2c(C)noc2C)n1 (stereo not drawn)	-0.8772%	-3.652%	66.81%	0.2907%
CCCN1CCN(C(=O)CCn2nc(C(F)(F)F)c(Br)c2C)CC1	18.68%	-0.1121%	4.725%	12.87%
CCOC(=O)[C@@H]1[C@@H](OC)C(=O)N(C)C12CCN(C(=O)C(CC)CC)CC2	16.49%	-	-	4.624%
c1cncc(-c2nnc([C@H]3CCN(CC4CC4)C3)o2)c1	19.44%	-8.338%	10.02%	6.931%
COc1nn(C)cc1C(=O)N1CCC(c2nnc(C3CC3)o2)CC1	20.39%	-4.084%	-1.654%	0%
CO[C@H]1CN(Cc2cc(Cn3cncn3)c(C)cc2C)CC[C@H]1N	18.75%	-43.14%	4.311%	-3.191%
COCc1ccccc1CNC(=O)CN1CCC2(CCOC2)C1 (stereo not drawn)	4.255%	-20.96%	7.551%	8.671%

Some entries from above, unchanged:

compound	LiHisRS	Pks13 thioesterase	MtTrpRS	TcHisRS
O=C(NCc1ccccn1)NCc1ccc(Cl)s1	13.68%	-16.81%	18.11%	4.843%
CO[C@H]1CN(Cc2cc(Cn3cncn3)c(C)cc2C)CC[C@H]1N	18.75%	-43.14%	4.311%	-3.191%
Cn1nc(Br)c2c(NCCS(N)(=O)=O)ncnc21	20%	40.18%	0.1356%	-2.484%
CN(Cc1cc(F)cc2cccnc12)CC1CCN(CCO)CC1	4.712%	-27.09%	1.445%	-0.5348%